Results reported in US11480502B2, “Method and composition for optical clearing of tissues” (The United States of America, as represented by the …, priority 2016, dated 2022).

Each compound was assayed on tissues (assay: Tissue transparency with tested clearing reagents combined with a density gradient medium (Table 1)). Settings: not given.
Parameters: key: more “+”s being desirable; ++: more “+”s being desirable; +++: more “+”s being desirable; ++++: more “+”s being desirable; level 5 (“+++++”); ++++++: more “+”s being desirable

| Structure (SMILES) | Tissue Transparency |
| --- | --- |
| CC(=O)N[Si](C)(C)C [N-(Trimethylsilyl)acetamide] | + |

Same assay, conditions: clearing reagent combined with a density gradient medium

| Structure (SMILES) | Tissue Transparency |
| --- | --- |
| NCC(O)CO (racemic) [(±)-3-Amino-1,2-propanediol] | +++++ |
| CN(C)C(N)=O [1,1-Dimethylurea] | ++ |
| CCNC(=O)NCC [1,3-Diethylurea] | ++ |
| CC(O)CN(C)C (stereo not drawn) [1-Dimethylamino-2-propanol] | ++++ |
| CN(C)C(=O)CN [2-Amino-N,N-dimethylacetamide] | + |
| CNC(=O)CN [2-Amino-N-methylacetamide] | + |
| O=C(CCl)NCO [2-Chloro-N-(hydroxymethyl)acetamide] | +++++ |
| CN(C)C(C)(C)CO [2-Dimethylamino-2-methylpropanol] | +++++ |
| CNC(=O)CO [2-Hydroxy-N-methylacetamide] | +++ |
| CN(C)CCCO [3-Dimethylamino-1-propanol] | +++++ |
| CNCC(O)CO (stereo not drawn) [3-Methylamino-1,2-propanediol] | +++++ |
| CNCCCO [3-Methylamino-1-propanol] | ++++ |
| CC(N)=O [Acetamide] | + |
| CC(O)CNCC(C)O (stereo not drawn) [Bis(2-hydroxypropyl)amine] | +++++ |
| NC=O [Formamide] | ++++++ |
| NC(=O)CO [Glycolamide] | ++ |
| CCN(CC)C(=O)CO [N,N-Diethyl-2-hydroxyacetamide] | +++ |
| CNC(=O)NC [N,N′-Dimethylurea] | ++++ |
| COc1ccccc1NC(C)=O [N-(2-Methoxyphenyl)acetamide] | + |
| CC(=O)NCO [N-(Hydroxymethyl)acetamide] | +++ |
| CCNC(C)=O [N-Ethylacetamide] | ++++ |
| CON(C)C(C)=O [N-Methoxy-N-methylacetamide] | +++ |
| CNC(C)=O [N-Methylacetamide] | +++++ |
| CNC=O [N-Methylformamide] | ++++++ |
| NC(CO)CO [Serinol] | ++++ |
| NC(N)=O [Urea] | +++ |
